In patent US8211883B2, “Topical delivery of phthalocyanines” (priority 2004, dated 2012):
Some results were stated once for a whole list of compounds, not compound by compound. For at least one compound, name, drawing or mass did not settle the structure.

Tested on: human skin keratome biopsies
Assay: Penetration of topically applied PcIV and salts into human skin, confocal fluorescence microscopy
Format: in vitro ADME
Settings: fluorescence inversely proportional to laser transmission
Method: Human skin absorption of PcIV was analyzed by fluorescence confocal microscopy. PcIV fluorescence, upon activation with a HeNe laser at 633 nm, was visualized using a 650 long pass filter. Briefly, 0.4 mm thick human keratomes were removed from the gluteal region of healthy volunteers and divided into 1.5 cm×1.5 cm squares of skin. Upon application of PcIV to the epidermis in a vehicle of ethanol and propylene glycol, visualization of penetration of PcIV was achieved by fluorescence. Pc 4 was then prepared as PcIV-pyruvate and PcIV-HCl and applied in the same vehicle as Pc 4 to the epidermis. Three concentrations, namely, 0.1 mg/mL, 0.05 mg/mL, and 0.01 mg/mL were tested per PcIV formulation. […] Maximum PcIV fluorescence was detectable using laser transmission of 3% for the 0.1 mg/mL and 30% for the 0.01 mg/mL. […]
The ability of PcIV and the newly prepared PcIV salts (HCl and pyruvate) to penetrate into the epidermis of keratome derived biopsies was examined. The time course of penetrance as well as the effect of dose of the PcIV compounds were evaluated. […]
Keratome biopsies of normal skin were obtained from normal volunteers after written consent according to UHHS IRB protocol # 05-95-03. […] PcIV fluorescence was elicited using a 633 nm wavelength for excitation, and collected with a 633 nm dichroic mirror and 650 nm long-pass filter.

SMILES: CC(=O)C(=O)O.CN(C)CCC[Si](C)(C)O[Si]1(O)n2c3c4ccccc4c2N=C2N=C(N=c4c5ccccc5c(n41)=NC1=NC(=N3)c3ccccc31)c1ccccc12 (centres unmarked) [PcIV-pyruvate, HOSiPcOSi(CH3)2(CH2)3N(CH3)2(CH3C(O)COOH)]
- laser transmission at which maximum fluorescence was detectable (0.01 mg/mL in ethanol and propylene glycol): 7-9%
- laser transmission at which maximum fluorescence was detectable (0.1 mg/mL in ethanol and propylene glycol): 2-3%
